Measurements reported in article PMC10119927, “Compact Rotaxane Superbases” (Journal of the American Chemical Society, 2023).

Experiment: Base-mediated elimination of HBr from 4-bromophenethyl bromide: deprotonation kinetics and protonation vs alkylation
Conditions: for formation of eliminated product 9a: reaction times of over a week at 25 °C

Compound	Superbase conversion (final time 168 hours (80 °C))	formation of eliminated product 9a	also measured
C1COCCOCCOCCOCCOCCOCCO1.FC(F)(F)c1cc(CNCc2cc(C(F)(F)F)cc(C(F)(F)F)c2)cc(C(F)(F)F)c1 [21C7⊂3]	3%	only traces	–
C1COCCOCCOCCOCCOCCOCCOCCO1.CC(C)(C)c1cc(CNCc2cc(C(C)(C)C)cc(C(C)(C)C)c2)cc(C(C)(C)C)c1 [24C8⊂2]	37%	only traces	–
C1COCCOCCOCCOCCOCCOCCO1.Cc1cc(C)cc(CNCc2cc(C)cc(C)c2)c1 [21C7⊂6]	–	–	Superbase conversion (final time 1 hour (25 °C)): 100%
C1CCC2=NCCCN2CC1 [DBU, 1,8-diazabicyclo(5.4.0)undec-7-ene, reference compound]	–	–	Superbase conversion (final time 168 hours (25 °C)): 17%
CN(C)P(=NC(C)(C)C)(N(C)C)N(C)C [P1-^tBu, tert-butylimino-tris(dimethylamino)phosphorane, reference compound]	–	–	Superbase conversion (final time 120 hours (25 °C)): 21%
C1COCCOCCOCCOCCOCCOCCOCCO1.FC(F)(F)c1cc(CNCc2cc(C(F)(F)F)cc(C(F)(F)F)c2)cc(C(F)(F)F)c1 [24C8⊂3]	–	–	Superbase conversion (final time 16 hours (25 °C)): 7%
